{"source": "paper doi:10.1101/2025.10.08.681084", "binders": {"B1": {"name": "Nuclear factor erythroid 2-related factor 2 (Nrf2), endogenous in Du145 cells (protein, UniProt Q16236 1-605)", "chain": "MMDLELPPPGLPSQQDMDLIDILWRQDIDLGVSREVFDFSQRRKEYELEKQKKLEKERQEQLQKEQEKAFFAQLQLDEETGEFLPIQPAQHIQSETSGSANYSQVAHIPKSDALYFDDCMQLLAQTFPFVDDNEVSSATFQSLVPDIPGHIESPVFIATNQAQSPETSVAQVAPVDLDGMQQDIEQVWEELLSIPELQCLNIENDKLVETTMVPSPEAKLTEVDNYHFYSSIPSMEKEVGNCSPHFLNAFEDSFSSILSTEDPNQLTVNSLNSDATVNTDFGDEFYSAFIAEPSISNSMPSPATLSHSLSELLNGPIDVSDLSLCKAFNQNHPESTAEFNDSDSGISLNTSPSVASPEHSVESSSYGDTLLGLSDSEVEELDSAPGSVKQNGPKTPVHSSGDMVQPLSPSQGQSTHVHDAQCENTPEKELPVSPGHRKTPFTKDKHSSRLEAHLTRDELRAKALHIPFPVEKIINLPVVDFNEMMSKEQFNEAQLALIRDIRRRGKNKVAAQNCRKRKLENIVELEQDLDHLKDEKEKLLKEKGENDKSLHLLKKQLSTLYLEVFSMLRDEDGKPYSPSEYSLQQTRDGNVFLVPKSKKPDVKKN"}}, "biological_target": "K13-GFP (Plasmodium falciparum Kelch13 fused to GFP) (Plasmodium falciparum)", "assay": "co-IP", "note": "No constants are given. Whether binding was seen depends on the method and setting. In cells and extracts the contact can be indirect. Binding can be weak; no strength is given."}
{"binder": "B1", "values": [{"measurement": "binding", "value": "binds"}]}
